Publication PMC12690526
Results are given in words; binding and its absence hold for the method and conditions named.

Chains of the proteins cited; added tags and fusions are not shown.
UniProt O75533: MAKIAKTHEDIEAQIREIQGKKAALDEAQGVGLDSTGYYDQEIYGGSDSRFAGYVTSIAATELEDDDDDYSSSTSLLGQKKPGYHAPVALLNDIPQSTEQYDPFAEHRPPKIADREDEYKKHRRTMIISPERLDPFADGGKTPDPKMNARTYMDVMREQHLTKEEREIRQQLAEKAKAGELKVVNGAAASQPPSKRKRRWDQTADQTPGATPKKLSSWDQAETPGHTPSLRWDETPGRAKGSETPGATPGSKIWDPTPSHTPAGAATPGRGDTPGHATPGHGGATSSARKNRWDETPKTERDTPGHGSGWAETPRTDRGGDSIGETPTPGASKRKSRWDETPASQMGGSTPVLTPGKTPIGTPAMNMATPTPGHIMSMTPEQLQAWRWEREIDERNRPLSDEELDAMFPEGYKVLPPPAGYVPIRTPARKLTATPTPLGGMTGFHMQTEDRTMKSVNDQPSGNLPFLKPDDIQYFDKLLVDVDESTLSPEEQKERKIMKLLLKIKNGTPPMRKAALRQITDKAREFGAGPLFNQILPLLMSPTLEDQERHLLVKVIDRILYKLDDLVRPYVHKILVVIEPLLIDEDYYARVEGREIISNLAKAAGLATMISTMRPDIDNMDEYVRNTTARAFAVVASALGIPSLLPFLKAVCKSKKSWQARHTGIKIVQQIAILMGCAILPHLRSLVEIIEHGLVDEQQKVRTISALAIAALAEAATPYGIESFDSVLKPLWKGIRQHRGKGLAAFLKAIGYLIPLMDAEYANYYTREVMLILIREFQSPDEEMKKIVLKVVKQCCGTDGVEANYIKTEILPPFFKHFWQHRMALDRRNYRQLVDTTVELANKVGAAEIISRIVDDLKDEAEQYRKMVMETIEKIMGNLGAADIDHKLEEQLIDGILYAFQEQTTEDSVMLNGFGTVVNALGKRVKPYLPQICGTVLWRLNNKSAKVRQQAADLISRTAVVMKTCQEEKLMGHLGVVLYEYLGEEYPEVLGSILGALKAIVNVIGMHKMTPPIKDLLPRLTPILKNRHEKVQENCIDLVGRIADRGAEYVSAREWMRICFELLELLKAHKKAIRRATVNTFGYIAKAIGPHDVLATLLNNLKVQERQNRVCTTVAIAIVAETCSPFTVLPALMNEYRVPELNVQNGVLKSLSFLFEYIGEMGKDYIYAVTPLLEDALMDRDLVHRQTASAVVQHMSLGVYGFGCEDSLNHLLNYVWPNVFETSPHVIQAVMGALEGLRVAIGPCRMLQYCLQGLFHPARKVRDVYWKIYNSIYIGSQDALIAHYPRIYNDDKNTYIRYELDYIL
UniProt Q9HCM7: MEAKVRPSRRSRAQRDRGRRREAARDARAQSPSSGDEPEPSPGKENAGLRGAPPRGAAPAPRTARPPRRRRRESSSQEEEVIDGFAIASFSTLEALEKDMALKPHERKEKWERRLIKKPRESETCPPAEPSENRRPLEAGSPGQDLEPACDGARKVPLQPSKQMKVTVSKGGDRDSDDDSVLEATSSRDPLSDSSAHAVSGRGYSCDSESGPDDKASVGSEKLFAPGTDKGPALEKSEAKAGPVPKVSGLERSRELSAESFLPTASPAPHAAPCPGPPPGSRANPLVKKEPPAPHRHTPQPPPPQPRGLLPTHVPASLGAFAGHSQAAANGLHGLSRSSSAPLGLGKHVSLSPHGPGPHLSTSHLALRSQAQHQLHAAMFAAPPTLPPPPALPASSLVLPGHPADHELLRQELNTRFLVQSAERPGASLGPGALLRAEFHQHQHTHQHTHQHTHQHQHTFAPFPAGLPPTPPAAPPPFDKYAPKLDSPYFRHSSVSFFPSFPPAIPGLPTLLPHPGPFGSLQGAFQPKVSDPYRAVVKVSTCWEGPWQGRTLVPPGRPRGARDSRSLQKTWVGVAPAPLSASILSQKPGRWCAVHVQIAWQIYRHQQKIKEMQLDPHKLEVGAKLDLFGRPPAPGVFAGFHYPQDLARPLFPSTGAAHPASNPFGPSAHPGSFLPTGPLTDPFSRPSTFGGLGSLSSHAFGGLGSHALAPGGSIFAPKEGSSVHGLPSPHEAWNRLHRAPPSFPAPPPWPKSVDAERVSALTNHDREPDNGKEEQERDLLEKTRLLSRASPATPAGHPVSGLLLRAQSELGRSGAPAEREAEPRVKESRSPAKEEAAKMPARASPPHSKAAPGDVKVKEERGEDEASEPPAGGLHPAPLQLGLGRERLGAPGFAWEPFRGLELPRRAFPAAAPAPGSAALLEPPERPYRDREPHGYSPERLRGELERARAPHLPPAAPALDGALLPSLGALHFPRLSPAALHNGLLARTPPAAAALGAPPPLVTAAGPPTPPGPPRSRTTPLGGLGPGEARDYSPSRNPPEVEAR

Target: human full-length SF3B1 (two-hybrid bait) (human) (UniProt O75533)
Test: two-hybrid; Matchmaker Gold system, S. cerevisiae Y2HGold; SF3B1 constructs as bait in pGBKT7, FBRSL1 isoforms as prey in pGADT7; growth on -LTHA selective plates, -LT plates as control of co-transformation

human FBRSL1 isoform 1 (two-hybrid prey) (from UniProt Q9HCM7 1-1045)
binding: no binding
